Results are given in words; binding and its absence hold for the method and conditions named. Binding can be weak; no strength is given.
Target: T1, Cjun KEKE motif peptide (canine), residues 84–105, biotinylated (canine)
T1 sequence (peptide, biotin on the N-terminus (peptides for affinity chromatography)): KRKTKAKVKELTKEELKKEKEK
Test: pull-down; affinity chromatography: biotinylated canine KEKE peptide on streptavidin–agarose, purified RyR1 or RyR2; both purified

binding: binds
Substance: RyR2 purified from sheep heart
